Laboratory results taken from PubChem BioAssay AID445 (National Center for Advancing Translational Sciences (NCATS), 2006).
Some of the results follow. These are further read-outs of the screen, such as a control signal, another cell line or another target. No call is given for them. Most of these compounds were active or inconclusive in the main read-out, so they are no random draw. The note in brackets gives the kind of curve behind each potency; many fits are weak.

Experiment: IkB Signaling
Conditions: ABC-DLBCL IkBa-CBG/CBR dual luciferase ratio (green luciferase fused to IkBa over red control in OCI-Ly3 lymphoma cells), 4 h; measured here: control luc red channel unless noted
Procedure, shortened: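 In this assay, an IκBα–CBG68 fusion accumulates when IKK-driven degradation is blocked; native CBR normalizes for cell number. OCI-Ly3 cells were treated 4 h with compound and doxycycline, then green and red light read after Chroma-Glo addition.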

| Compound | AC50 |
| --- | --- |
| CCSc1nc2c([nH]c3ccccc32)c(=O)n1-c1cccc(OC)c1 | 39.8 µM [falling, single point] |
| c1ccc(-c2noc(-c3ccco3)n2)nc1 | 12.6 µM [falling, partial curve] |
| COc1cc(C(=O)Nc2cccc(OCc3cc(=O)n4cc(C)sc4n3)c2)cc(OC)c1OC | 2 µM [falling, full curve] |
| CC(=O)Nc1nonc1-c1nnc(SCC(=O)Nc2cccc(C)c2C)n1-c1ccccc1 | 15.8 µM [falling, partial curve] |
| COc1ccc(-c2nc(CCNC(=O)c3c(F)cccc3Cl)cs2)cc1 | 39.8 µM [falling, single point] |
| CC1CCN(C(=O)Cn2cc(SCC(=O)Nc3ccccc3C(F)(F)F)c3ccccc32)CC1 | 25.1 µM [falling, single point] |
| Cc1ccc(-n2ncc(C(=O)N3CCN(c4ncccn4)CC3)c2C2CCN(C(=O)OC(C)(C)C)CC2)cc1 | 20 µM [falling, partial curve] |
| COc1ccc(S(=O)(=O)NCCSCc2cccs2)cc1 | 20 µM [falling, partial curve] |
| C=CCn1c(SCC(=O)NC2CCCC2)nc2scc(-c3ccco3)c2c1=O | 39.8 µM [rising, single point] [measured here: IkB-luc green channel] |
| Cc1nc(-c2ccc(S(=O)(=O)N(C)Cc3ccccc3)cc2)co1 | 20 µM [falling, partial curve] |
| CCn1c2ccccc2c2nnc(N3CCN(c4ccc(OC)cc4)CC3)nc21 | 6.31 µM [falling, partial curve] |
| Cc1nc2sccn2c1-c1csc(NCc2ccccc2)n1 | 20 µM [falling, partial curve] |
| CCn1c(COc2ccc(Cl)cc2)nnc1SCc1ccc(C#N)cc1 | 6.31 µM [falling, partial curve] |
| CCCCCc1ccc(-c2ccc(C(=O)Oc3ccc(C(=O)OC)cc3)cc2)nc1 | 0.126 µM [falling, full curve] |
| COc1ccccc1Nc1c2c(nc3ccc(NC(=O)/C=C/c4cc(OC)c(OC)c(OC)c4)cc13)CCCC2 | 25.1 µM [falling, partial curve] |
| O=C(Cc1cn2ccsc2n1)OCc1ccccc1 | 10 µM [falling, partial curve] |
| COc1ccccc1CNC(=O)c1ccc(CSc2nc3ccncc3n2Cc2ccccc2C)cc1 | 10 µM [falling, partial curve] |
| O=C(c1ccc(Nc2nc3ccccc3n3nnnc23)cc1)N1CCN(c2ccc(F)cc2)CC1 | 6.31 µM [falling, full curve] |
| COc1cc(NC(=O)c2cc3nc(-c4ccc(C)cc4)cc(C(F)(F)F)n3n2)cc(OC)c1OC | 10 µM [falling, partial curve] |
| O=S(=O)(Nc1ccc(F)cc1F)c1ccc(Br)s1 | 25.1 µM [falling, single point] |

| Compound | AC50 |
| --- | --- |
| COc1ccc(CCNC(=O)c2cnc3sc(N4CCOCC4)nn3c2=O)cc1OC | 25.1 µM [rising, single point] |
| O=C(Nc1cc(-c2nc3cc(Cl)ccc3o2)ccc1Cl)c1cccc2ccccc12 | 2 µM [falling, full curve] |
| COc1ccc(CCNC(=O)c2c[nH]n3c(=O)c(Cc4ccccc4Cl)c(C)nc23)cc1OC | 31.6 µM [falling, partial curve] |
| CCn1c2c(c(=O)n3ncc(C(=O)Nc4ccc(OC(F)(F)F)cc4)c13)CN(Cc1ccc(OC)cc1)CC2 | 3.16 µM [falling, partial curve] |
| COc1cccc(C(=O)Nc2ccc3nc(N4CCN(c5ncccn5)CC4)cc(C)c3c2)c1OC | 1.26 µM [falling, full curve] |
| Fc1ccc([C@@H]2Nc3ccccc3[C@@H]3C=CC[C@@H]32)cc1 | 15.8 µM [falling, partial curve] |
| COc1ccc(/C=C/c2nc(C#N)c(N3CCCCCC3)o2)cc1OC | 39.8 µM [falling, single point] |
| O=C(Cn1cc(S(=O)(=O)c2ccc(Cl)cc2)c(=O)c2ccccc21)Nc1ccc2c(c1)OCO2 | 2 µM [falling, partial curve] |
| COc1ccc(CNS(=O)(=O)c2ccc3c(c2)NC(=O)C(C)C(=O)N3)cc1 (stereo not given) | 15.8 µM [falling, single point] |
| Cc1ccc(C)c(S(=O)(=O)Nc2ccc3c(c2)CCCN3C(=O)c2cccs2)c1 | 31.6 µM [falling, partial curve] |
| Cc1ccc(C)c(Nc2ncnc3c2cnn3-c2ccc(F)cc2)c1 | 20 µM [falling, single point] |
| COc1ccc(C)cc1NS(=O)(=O)c1ccc(-c2cnc(C3CC3)o2)cc1 | 0.794 µM [rising, full curve] |
| CCc1ccc(Nc2ncnc3sc4c(c23)CCCC4)cc1 | 6.31 µM [rising, single point] |
| CCCN(C(=O)c1cc2c(=O)n(CC)c3ccccc3c2s1)c1ccccc1F | 10 µM [falling, partial curve] |
| CCCCNC(=O)c1cc(-c2ccc(F)cc2)on1 | 2 µM [falling, partial curve] |
| O=C(c1cccc([N+](=O)[O-])c1)N1c2nc(-c3ccco3)nn2C2(CCCCC2)[C@@H]2CCCC[C@@H]21 | 5.01 µM [falling, full curve] |
| CCCC(=O)c1cc2c(cc1NC(=O)c1ccccc1F)OCCO2 | 3.16 µM [rising, single point] |
| COc1cccc(CNC(=O)C2CCCN(S(=O)(=O)c3ccc4c(ccn4C)c3)C2)c1OC (stereo not given) | 10 µM [falling, partial curve] |
| Cc1cc(C(=O)Nc2cccc(C(F)(F)F)c2)c2c(C)nn(-c3cccc(F)c3)c2n1 | 39.8 µM [falling, single point] |
| CC(=O)Nc1ccc(NC(=O)CC(C)n2ccc(C)n2)cc1 (stereo not given) | 12.6 µM [falling, partial curve, poor fit] |

Molecules shown so far that have fluorine, in the order listed:

| Compound | AC50 |
| --- | --- |
| COc1ccc(-c2nc(CCNC(=O)c3c(F)cccc3Cl)cs2)cc1 | 39.8 µM [falling, single point] |
| CC1CCN(C(=O)Cn2cc(SCC(=O)Nc3ccccc3C(F)(F)F)c3ccccc32)CC1 | 25.1 µM [falling, single point] |
| O=C(c1ccc(Nc2nc3ccccc3n3nnnc23)cc1)N1CCN(c2ccc(F)cc2)CC1 | 6.31 µM [falling, full curve] |
| COc1cc(NC(=O)c2cc3nc(-c4ccc(C)cc4)cc(C(F)(F)F)n3n2)cc(OC)c1OC | 10 µM [falling, partial curve] |
| O=S(=O)(Nc1ccc(F)cc1F)c1ccc(Br)s1 | 25.1 µM [falling, single point] |
| CCn1c2c(c(=O)n3ncc(C(=O)Nc4ccc(OC(F)(F)F)cc4)c13)CN(Cc1ccc(OC)cc1)CC2 | 3.16 µM [falling, partial curve] |
| Fc1ccc([C@@H]2Nc3ccccc3[C@@H]3C=CC[C@@H]32)cc1 | 15.8 µM [falling, partial curve] |
| Cc1ccc(C)c(Nc2ncnc3c2cnn3-c2ccc(F)cc2)c1 | 20 µM [falling, single point] |
| CCCN(C(=O)c1cc2c(=O)n(CC)c3ccccc3c2s1)c1ccccc1F | 10 µM [falling, partial curve] |
| CCCCNC(=O)c1cc(-c2ccc(F)cc2)on1 | 2 µM [falling, partial curve] |
| CCCC(=O)c1cc2c(cc1NC(=O)c1ccccc1F)OCCO2 | 3.16 µM [rising, single point] |
| Cc1cc(C(=O)Nc2cccc(C(F)(F)F)c2)c2c(C)nn(-c3cccc(F)c3)c2n1 | 39.8 µM [falling, single point] |
